Laboratory results from PMC7648012.
Results are given in words; binding and its absence hold for the method and conditions named. In cells and extracts the contact can be indirect. Some results given as binding are weak or reduced against the parent protein; the word gives no strength. For some assays here: Tags and fused reporters may be left off the sequences shown.

Sequences of proteins named here, by UniProt entry; tags and fusion partners are left off.
UniProt Q9P0M6: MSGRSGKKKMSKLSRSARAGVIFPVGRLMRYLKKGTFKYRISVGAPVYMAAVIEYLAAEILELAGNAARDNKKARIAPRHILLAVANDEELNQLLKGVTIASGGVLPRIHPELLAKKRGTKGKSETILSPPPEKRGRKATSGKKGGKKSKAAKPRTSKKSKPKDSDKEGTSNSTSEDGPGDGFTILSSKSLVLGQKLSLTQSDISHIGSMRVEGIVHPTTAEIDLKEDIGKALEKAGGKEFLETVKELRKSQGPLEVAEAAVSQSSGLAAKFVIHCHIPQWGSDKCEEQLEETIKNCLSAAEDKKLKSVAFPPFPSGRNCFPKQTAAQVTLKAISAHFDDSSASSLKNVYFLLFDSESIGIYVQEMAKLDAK

T1: 3×FLAG-LSH (wild type) (human) (UniProt Q9NRZ9)
T1 sequence: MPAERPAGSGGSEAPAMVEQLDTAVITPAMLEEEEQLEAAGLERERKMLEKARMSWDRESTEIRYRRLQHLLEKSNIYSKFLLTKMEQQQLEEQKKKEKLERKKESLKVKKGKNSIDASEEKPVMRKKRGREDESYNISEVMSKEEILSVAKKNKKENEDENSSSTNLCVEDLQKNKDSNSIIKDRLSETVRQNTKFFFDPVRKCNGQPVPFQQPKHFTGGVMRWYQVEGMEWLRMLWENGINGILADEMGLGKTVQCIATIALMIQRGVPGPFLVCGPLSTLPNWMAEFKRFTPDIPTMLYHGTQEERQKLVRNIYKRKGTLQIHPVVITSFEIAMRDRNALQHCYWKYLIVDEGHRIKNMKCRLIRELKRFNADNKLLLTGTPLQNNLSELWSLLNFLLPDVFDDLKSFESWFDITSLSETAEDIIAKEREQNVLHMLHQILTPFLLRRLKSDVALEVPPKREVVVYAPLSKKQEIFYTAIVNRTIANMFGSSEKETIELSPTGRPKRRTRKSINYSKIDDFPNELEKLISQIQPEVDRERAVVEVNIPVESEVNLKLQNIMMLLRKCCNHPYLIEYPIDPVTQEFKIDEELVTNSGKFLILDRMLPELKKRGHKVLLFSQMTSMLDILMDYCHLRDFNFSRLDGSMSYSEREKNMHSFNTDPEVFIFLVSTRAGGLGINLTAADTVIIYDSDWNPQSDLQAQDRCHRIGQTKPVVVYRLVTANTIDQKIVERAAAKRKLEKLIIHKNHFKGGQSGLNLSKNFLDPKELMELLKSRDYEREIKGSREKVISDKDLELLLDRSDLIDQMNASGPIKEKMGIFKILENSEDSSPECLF


Experiments:
[1] = target: T1, 3×FLAG-LSH (wild type) (human); test: co-IP; Flag-IP from lysate of U2OS cells stably expressing 3×FLAG-LSH (WT or ICF4 mutant); IP lysis buffer 25 mM Tris-HCl pH 7.4, 150 mM NaCl, 1% NP-40, 1 mM EDTA, 5% glycerol; 4 °C overnight; Protein G magnetic beads; western blot
macroH2A2-GFP = macroH2A2-GFP (UniProt Q9P0M6); test: co-IP; GFP-IP from lysate of U2OS cells with a stably integrated macroH2A2-GFP vector (GFP cells as control); IP lysis buffer 25 mM Tris-HCl pH 7.4, 150 mM NaCl, 1% NP-40, 1 mM EDTA, 5% glycerol; 4 °C overnight; Protein G magnetic beads; western blot

| binding [1] | binding (macroH2A2-GFP) | Molecule |
| --- | --- | --- |
| binds |  | macroH2A2 (from UniProt Q9P0M6 1-372) |
|  | binds | LSH (endogenous in U2OS) (protein, UniProt Q9NRZ9 1-838) MPAERPAGSGGSEAPAMVEQLDTAVITPAMLEEEEQLEAAGLERERKMLEKARMSWDRESTEIRYRRLQHLLEKSNIYSKFLLTKMEQQQLEEQKKKEKLERKKESLKVKKGKNSIDASEEKPVMRKKRGREDESYNISEVMSKEEILSVAKKNKKENEDENSSSTNLCVEDLQKNKDSNSIIKDRLSETVRQNTKFFFDPVRKCNGQPVPFQQPKHFTGGVMRWYQVEGMEWLRMLWENGINGILADEMGLGKTVQCIATIALMIQRGVPGPFLVCGPLSTLPNWMAEFKRFTPDIPTMLYHGTQEERQKLVRNIYKRKGTLQIHPVVITSFEIAMRDRNALQHCYWKYLIVDEGHRIKNMKCRLIRELKRFNADNKLLLTGTPLQNNLSELWSLLNFLLPDVFDDLKSFESWFDITSLSETAEDIIAKEREQNVLHMLHQILTPFLLRRLKSDVALEVPPKREVVVYAPLSKKQEIFYTAIVNRTIANMFGSSEKETIELSPTGRPKRRTRKSINYSKIDDFPNELEKLISQIQPEVDRERAVVEVNIPVESEVNLKLQNIMMLLRKCCNHPYLIEYPIDPVTQEFKIDEELVTNSGKFLILDRMLPELKKRGHKVLLFSQMTSMLDILMDYCHLRDFNFSRLDGSMSYSEREKNMHSFNTDPEVFIFLVSTRAGGLGINLTAADTVIIYDSDWNPQSDLQAQDRCHRIGQTKPVVVYRLVTANTIDQKIVERAAAKRKLEKLIIHKNHFKGGQSGLNLSKNFLDPKELMELLKSRDYEREIKGSREKVISDKDLELLLDRSDLIDQMNASGPIKEKMGIFKILENSEDSSPECLF |
